Measured values: publication PMC6711988
Read-outs that look alike come from different tables or passages of the source. Results are given in words; binding and its absence hold for the method and conditions named. Binding seen in cells or lysates may run through a third protein. Here binding means that the protein was enriched with, or labelled near, the bait; the list need not be complete. For some assays here: A no says only that the protein was not detected with the bait. For some assays here: Sequences can lack the tags named with a protein.

Amino acid sequences for entries named in this document (tags omitted). A change or cut given only in a name is not applied to a line headed by its entry.
UniProt Q7XZF5: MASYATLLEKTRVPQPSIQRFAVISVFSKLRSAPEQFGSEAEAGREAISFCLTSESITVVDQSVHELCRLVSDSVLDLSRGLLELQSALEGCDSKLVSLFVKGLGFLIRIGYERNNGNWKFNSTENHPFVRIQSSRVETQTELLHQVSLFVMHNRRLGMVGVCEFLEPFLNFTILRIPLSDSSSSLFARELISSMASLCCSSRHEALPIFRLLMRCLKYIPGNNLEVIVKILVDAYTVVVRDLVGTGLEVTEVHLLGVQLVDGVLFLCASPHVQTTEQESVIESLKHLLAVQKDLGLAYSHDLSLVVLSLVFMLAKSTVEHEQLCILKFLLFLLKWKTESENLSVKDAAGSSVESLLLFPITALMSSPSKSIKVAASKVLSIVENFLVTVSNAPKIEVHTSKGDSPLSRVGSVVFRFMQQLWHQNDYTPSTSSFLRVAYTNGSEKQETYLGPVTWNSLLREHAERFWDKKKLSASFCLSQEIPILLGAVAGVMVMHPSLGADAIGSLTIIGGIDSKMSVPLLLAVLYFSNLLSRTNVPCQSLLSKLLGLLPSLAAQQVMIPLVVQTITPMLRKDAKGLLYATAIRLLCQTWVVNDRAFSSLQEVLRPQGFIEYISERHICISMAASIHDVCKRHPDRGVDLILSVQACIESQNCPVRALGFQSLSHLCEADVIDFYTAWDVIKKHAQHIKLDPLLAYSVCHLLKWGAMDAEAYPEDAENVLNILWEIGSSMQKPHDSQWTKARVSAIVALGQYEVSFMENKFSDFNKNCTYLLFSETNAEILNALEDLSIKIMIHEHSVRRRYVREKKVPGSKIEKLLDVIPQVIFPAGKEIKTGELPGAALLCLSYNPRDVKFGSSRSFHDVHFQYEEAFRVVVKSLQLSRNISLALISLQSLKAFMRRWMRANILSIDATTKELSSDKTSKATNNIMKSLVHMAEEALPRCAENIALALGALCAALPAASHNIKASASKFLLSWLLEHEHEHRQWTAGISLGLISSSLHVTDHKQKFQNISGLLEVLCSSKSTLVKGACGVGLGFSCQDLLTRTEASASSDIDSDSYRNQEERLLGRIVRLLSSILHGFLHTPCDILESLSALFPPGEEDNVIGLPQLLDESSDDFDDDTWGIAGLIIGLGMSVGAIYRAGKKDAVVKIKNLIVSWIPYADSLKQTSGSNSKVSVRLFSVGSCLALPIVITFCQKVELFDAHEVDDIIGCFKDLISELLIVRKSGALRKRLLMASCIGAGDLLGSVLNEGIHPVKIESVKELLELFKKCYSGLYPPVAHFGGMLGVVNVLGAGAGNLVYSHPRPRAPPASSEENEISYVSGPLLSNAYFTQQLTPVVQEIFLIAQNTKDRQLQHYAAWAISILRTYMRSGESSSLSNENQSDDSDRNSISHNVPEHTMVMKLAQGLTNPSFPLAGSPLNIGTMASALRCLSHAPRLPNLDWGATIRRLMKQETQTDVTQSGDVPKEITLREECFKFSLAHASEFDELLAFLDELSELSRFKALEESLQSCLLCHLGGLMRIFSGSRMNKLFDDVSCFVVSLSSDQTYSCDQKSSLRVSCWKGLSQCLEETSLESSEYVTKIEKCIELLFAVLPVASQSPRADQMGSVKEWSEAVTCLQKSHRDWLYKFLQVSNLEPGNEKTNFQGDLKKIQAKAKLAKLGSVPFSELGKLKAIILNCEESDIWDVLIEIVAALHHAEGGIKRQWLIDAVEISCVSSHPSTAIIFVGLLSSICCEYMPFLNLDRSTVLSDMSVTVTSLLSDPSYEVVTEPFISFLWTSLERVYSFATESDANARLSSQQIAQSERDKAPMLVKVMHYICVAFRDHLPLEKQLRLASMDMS
UniProt F4JFM9: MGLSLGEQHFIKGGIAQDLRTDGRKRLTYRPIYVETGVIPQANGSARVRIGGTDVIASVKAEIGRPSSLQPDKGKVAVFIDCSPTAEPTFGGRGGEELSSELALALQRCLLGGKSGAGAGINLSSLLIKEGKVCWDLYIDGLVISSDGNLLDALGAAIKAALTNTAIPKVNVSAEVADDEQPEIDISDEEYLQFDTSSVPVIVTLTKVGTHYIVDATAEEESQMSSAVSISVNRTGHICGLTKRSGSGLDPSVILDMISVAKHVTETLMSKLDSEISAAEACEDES

T1: RRP41-GFP (Arabidopsis thaliana) (UniProt Q9SP08)
T1 sequence: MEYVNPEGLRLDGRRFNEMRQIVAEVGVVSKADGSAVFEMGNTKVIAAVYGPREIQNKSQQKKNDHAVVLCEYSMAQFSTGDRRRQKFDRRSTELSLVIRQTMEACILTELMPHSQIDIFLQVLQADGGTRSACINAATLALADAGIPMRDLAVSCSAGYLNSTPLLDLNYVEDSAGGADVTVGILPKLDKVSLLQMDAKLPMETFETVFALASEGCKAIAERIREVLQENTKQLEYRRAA

T2: RRP45A-GFP (Arabidopsis thaliana) (UniProt Q9LDM2)
T2 sequence: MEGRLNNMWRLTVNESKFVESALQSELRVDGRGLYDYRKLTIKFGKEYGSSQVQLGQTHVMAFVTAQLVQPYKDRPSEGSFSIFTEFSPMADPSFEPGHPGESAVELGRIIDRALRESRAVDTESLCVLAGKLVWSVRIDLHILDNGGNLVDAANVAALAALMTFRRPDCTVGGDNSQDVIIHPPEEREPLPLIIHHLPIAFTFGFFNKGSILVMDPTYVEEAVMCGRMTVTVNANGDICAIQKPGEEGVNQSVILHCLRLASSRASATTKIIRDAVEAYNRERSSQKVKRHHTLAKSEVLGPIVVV

T3: CER7-GFP (Arabidopsis thaliana) (UniProt Q9M209)
T3 sequence: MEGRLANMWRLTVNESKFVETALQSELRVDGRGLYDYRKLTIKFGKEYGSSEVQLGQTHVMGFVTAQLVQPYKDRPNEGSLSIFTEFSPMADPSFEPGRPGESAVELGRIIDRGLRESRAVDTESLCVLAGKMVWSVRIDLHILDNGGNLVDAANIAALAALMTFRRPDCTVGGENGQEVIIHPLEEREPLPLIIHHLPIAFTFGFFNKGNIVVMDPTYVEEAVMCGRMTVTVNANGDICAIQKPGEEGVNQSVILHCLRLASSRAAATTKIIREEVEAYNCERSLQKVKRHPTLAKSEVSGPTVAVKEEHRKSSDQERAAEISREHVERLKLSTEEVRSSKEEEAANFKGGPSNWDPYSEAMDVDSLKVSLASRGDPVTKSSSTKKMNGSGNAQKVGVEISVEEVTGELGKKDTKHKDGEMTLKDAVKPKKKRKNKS

T4: RST1 … PROTEIN (RIPR) fused to GFP (Arabidopsis thaliana) (UniProt F4K8S5)
T4 sequence: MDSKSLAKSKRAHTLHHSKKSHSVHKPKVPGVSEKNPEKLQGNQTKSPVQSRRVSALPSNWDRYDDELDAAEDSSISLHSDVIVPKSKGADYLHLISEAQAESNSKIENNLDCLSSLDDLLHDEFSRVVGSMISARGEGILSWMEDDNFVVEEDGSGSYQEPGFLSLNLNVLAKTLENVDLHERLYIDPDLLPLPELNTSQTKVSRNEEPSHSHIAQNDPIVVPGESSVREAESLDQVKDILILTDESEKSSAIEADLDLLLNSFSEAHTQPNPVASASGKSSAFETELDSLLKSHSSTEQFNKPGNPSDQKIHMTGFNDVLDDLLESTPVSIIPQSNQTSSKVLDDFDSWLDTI


Tests used:
Assay in all cases: affinity purification with mass spectrometry; GFP-tagged bait captured from cleared lysate of Arabidopsis flower buds (50 mM Tris HCl pH 7.5, 25 or 50 mM NaCl, 1% Triton) on magnetic microbeads coupled to GFP antibodies, five washes; eluate analysed by nanoLC-MS/MS; enrichment against 20 control IPs (adjP < 0.05)
[1] = target: T1, RRP41-GFP (Arabidopsis thaliana)
[2] = target: T2, RRP45A-GFP (Arabidopsis thaliana)
[3] = target: T3, CER7-GFP (Arabidopsis thaliana)
[4] = target: T4, RST1 … PROTEIN (RIPR) fused to GFP (Arabidopsis thaliana)
[5] = target: RESURRECTION1 (RST1) fused to GFP (Arabidopsis thaliana) (UniProt Q7XZF5)
[6] = target: RESURRECTION1 (RST1) fused to GFP (Arabidopsis thaliana) (UniProt Q7XZF5); remark: listed apart in the source
[7] = target: T4, RST1 … PROTEIN (RIPR) fused to GFP (Arabidopsis thaliana); remark: listed apart in the source
[8] = target: T1, RRP41-GFP (Arabidopsis thaliana); remark: listed apart in the source
[9] = target: T2, RRP45A-GFP (Arabidopsis thaliana); remark: listed apart in the source
[10] = target: T3, CER7-GFP (Arabidopsis thaliana); remark: listed apart in the source

binding [1] | binding [2] | binding [3] | binding [4] | binding [6] | binding [7] | Molecule | other results
binds | no binding | binds | binds |  |  | SKI7 | 
binds | no binding | binds | binds |  |  | RESURRECTION1 (RST1) (from UniProt Q7XZF5 1-1841) | 
 |  |  |  |  |  | RRP42 (from UniProt F4JFM9) | binding [5]: binds
 |  |  |  | no binding | binds | SKI8 (protein, UniProt Q9SZQ5 1-321) MKLAGLKSIENAHEDSVWAATWVPATEDRPALLLTGSLDETVKLWRPDELDLVRTNTGHSLGVAALAAHPSGIIAASSSIDSFVRVFDVDTNATIAVLEAPPSEVWGMQFEPKGTILAVAGGSSASVKLWDTASWRLISTLSIPRPDAPKPSDKTSSKKFVLSVAWSPNGKRLACGSMDGTICVFDVDRSKLLHQLEGHNMPVRSLVFSPVDPRVLFSGSDDGHVNMHDAEGKTLLGSMSGHTSWVLSVDASPDGGAIATGSSDRTVRLWDLKMRAAIQTMSNHNDQVWSVAFRPPGGTGVRAGRLASVSDDKSVSLYDYS | 
 |  |  |  | binds |  | RST1 … PROTEIN (RIPR) (protein, UniProt F4K8S5 1-355) MDSKSLAKSKRAHTLHHSKKSHSVHKPKVPGVSEKNPEKLQGNQTKSPVQSRRVSALPSNWDRYDDELDAAEDSSISLHSDVIVPKSKGADYLHLISEAQAESNSKIENNLDCLSSLDDLLHDEFSRVVGSMISARGEGILSWMEDDNFVVEEDGSGSYQEPGFLSLNLNVLAKTLENVDLHERLYIDPDLLPLPELNTSQTKVSRNEEPSHSHIAQNDPIVVPGESSVREAESLDQVKDILILTDESEKSSAIEADLDLLLNSFSEAHTQPNPVASASGKSSAFETELDSLLKSHSSTEQFNKPGNPSDQKIHMTGFNDVLDDLLESTPVSIIPQSNQTSSKVLDDFDSWLDTI | binding [8]: binds; binding [9]: no binding; binding [10]: binds
 |  |  |  | no binding | binds | SKI3 (protein, UniProt F4I3Z5 1-1168) MELEQLKKSVEENPDDSSLQFELGLYLWDNGGDSEKAAEHFVLSAKSDPNNAVAFKYLGHYYSRVTLDLNRAAKCYQRAVLINPNDSDSGEALCDLFDRQGKEILEIAVCRDASEKSPKAFWAFCRLGYIQLHQKKWSEAVQSLQHAIRGYPTMSDLWEALGLAYQRLGMFTAAIKAYGRAIELDETKIFALVESANIFLMLGSYRKGVELFEQALKISPQNISVLYGLASGLLSWSKECINLGAFGWAASLLEDARKAAKASSELASSMSCIWKLHGDIQLTYARCFPWSGGTENSEFTLKTFSDSILSWRSICYSAALSAKASYQRALHLAPWQANVYTDIAITCDLVSSLSDDSDTSSSWKLPEKMVLGALLLECENSEFWVALGCMSDNSALKLHALIRALHLDVSLAVAWAFMGQIFRESDEMKFAKQAFDCARSIDPTLALPWAGSADTYARESTSDEAFESCLRAAQISPLAEFQVGLAWLALLQGNISSPQIFACIEQAVQRSPYYPEPHNLHGLVCEARHNYHTAIASYRLALAAMSIYPESSVKSHAGKVSINLVRSLSKAGRFKESVMECANLKSKGLLDAGGLQIYAFSLWRTGQNDSALSVIRDLAGRISTREKTSIAFPISFICSLLYCISGLDSAITSIQKMPKDFFQSSKISFIVSAIHSLDQSDRLQSIVASTRSYITSQEEIVAMHYLIALSKLLKTGAGDFLGYEKGIAHLSKAIHMYPHSNLIRNLLGYILLAGEGMKDACTASRCCIINVSECANKEGLKSALEVLGGGSVACNVIGNTAPRFSFPTCHCQYLNAPVVVVELQRFLHQEPSNSSVRYLLILNLVQKAREQRFPRQLCRAIERLISVALSDETCSKEGEYKKFQLLLCASEISLQMGNIAESINHARKASSLSLPSSYLFLGHLQLCRAYAANGSTKNMQEEYRACLELKTDSNIGWICLKLIESQYNLEPDANLLEMSLQECSSQKKNSWKEWMAVYSLARGLDSTGKKDFFSAEEFLAQACSLLNSESCLLLCHGAVCMELARQSNDSQFLSLAVKSLSKVQASSLFPLPIVYTLLAQAHGSLGSKEKWEKNLRLEWFCWPPEMRPAEVYFQMHILARQSEDRPETTSGIENYQSPEKWVIRAIHTDPSCRRYWKVLDKLVQHPMS | 
